Binding data for three molecules are collected here from publication PMC4778064.

By UniProt entry, the sequences of proteins in these tests, tags left out. Residues count along the entry.
UniProt D3Z7H4: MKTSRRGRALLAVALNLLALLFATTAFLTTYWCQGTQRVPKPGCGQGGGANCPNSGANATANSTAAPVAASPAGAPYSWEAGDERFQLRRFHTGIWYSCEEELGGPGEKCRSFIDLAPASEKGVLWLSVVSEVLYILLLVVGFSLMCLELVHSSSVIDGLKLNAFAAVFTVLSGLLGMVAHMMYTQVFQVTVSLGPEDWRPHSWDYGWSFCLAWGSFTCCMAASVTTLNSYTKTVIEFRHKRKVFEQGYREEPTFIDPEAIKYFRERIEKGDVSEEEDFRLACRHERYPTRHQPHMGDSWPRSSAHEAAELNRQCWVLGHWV
UniProt P19490, residues 19-907: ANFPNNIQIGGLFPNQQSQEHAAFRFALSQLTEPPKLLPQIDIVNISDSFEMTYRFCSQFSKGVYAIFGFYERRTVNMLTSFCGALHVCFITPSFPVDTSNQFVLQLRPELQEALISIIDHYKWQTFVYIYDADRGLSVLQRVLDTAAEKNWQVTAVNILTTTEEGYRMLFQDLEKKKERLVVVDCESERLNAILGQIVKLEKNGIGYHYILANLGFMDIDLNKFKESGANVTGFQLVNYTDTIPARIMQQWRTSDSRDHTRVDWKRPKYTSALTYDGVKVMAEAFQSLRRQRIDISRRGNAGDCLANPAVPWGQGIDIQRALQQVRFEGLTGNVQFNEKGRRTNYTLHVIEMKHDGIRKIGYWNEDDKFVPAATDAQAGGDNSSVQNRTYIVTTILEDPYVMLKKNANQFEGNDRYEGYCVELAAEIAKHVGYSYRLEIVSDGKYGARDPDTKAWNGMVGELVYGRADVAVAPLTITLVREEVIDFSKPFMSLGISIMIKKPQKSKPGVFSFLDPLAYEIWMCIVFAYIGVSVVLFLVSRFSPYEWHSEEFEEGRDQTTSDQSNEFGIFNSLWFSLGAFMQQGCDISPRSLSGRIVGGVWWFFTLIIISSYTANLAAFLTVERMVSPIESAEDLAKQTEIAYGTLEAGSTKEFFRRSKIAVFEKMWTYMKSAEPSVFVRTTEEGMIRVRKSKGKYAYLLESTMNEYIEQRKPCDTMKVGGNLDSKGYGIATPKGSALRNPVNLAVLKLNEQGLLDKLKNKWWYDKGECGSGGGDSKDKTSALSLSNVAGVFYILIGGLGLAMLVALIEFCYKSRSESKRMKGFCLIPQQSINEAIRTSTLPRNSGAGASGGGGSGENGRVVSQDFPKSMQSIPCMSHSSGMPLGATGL
UniProt P22756, residues 31-949: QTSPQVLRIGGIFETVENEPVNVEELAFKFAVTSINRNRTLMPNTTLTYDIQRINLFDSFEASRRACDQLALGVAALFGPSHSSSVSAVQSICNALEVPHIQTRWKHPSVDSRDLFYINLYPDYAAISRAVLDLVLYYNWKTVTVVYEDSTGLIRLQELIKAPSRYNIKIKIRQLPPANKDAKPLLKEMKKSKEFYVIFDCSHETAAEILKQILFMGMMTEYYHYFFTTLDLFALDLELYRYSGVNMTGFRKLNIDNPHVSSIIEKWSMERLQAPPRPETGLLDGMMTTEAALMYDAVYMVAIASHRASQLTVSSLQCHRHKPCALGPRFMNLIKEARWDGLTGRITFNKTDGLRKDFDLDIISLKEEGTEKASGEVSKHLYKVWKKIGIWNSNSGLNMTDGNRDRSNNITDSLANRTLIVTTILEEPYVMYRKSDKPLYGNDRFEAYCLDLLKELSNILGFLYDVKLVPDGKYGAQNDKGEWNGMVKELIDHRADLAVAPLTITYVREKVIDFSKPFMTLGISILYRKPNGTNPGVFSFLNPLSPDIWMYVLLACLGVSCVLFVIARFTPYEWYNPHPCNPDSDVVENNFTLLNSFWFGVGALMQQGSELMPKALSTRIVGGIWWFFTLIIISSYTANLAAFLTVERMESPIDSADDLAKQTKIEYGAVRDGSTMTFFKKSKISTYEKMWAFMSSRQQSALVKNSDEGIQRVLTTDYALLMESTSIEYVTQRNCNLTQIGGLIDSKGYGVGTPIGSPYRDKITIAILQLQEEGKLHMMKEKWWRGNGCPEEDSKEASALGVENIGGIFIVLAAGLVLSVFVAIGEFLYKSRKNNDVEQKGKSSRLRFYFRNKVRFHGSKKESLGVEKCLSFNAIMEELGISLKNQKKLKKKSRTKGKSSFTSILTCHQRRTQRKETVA

These are yes or no findings as the source states them, for the method shown. In cells and extracts the contact can be indirect. Some results given as binding are weak or reduced against the parent protein; the word gives no strength.

For experiment [1], the target named is Flag–GSG1L (Germ Cell-Specific Gene 1-Like) (mouse) (UniProt D3Z7H4). Description: co-IP; HEK293T cells co-expressing HA–GluA1 or HA–GluK1 with Flag–GSG1L; lysis buffer 25 mM Tris pH 7.5, 1% Triton X-100, 150 mM NaCl, 5% glycerol, 1 mM EDTA; anti-Flag M2 antibody and Protein G beads overnight at 4 °C; HA-tagged subunits probed with anti-HA.
The target of experiment [2] is GluA1 (endogenous, rat hippocampus) (rat (endogenous in hippocampus)) (UniProt P19490). Description: co-IP; immunoprecipitation from hippocampal lysates of +/+ and GSG1L −/− rats; which protein was precipitated not given.

Consider “HA–GluK1 (Kainate receptor GluK1 subunit) (from UniProt P22756 31-949)”, for which the binding result in experiment [1] was “no binding”.

B1: TARP γ2 (endogenous, rat hippocampus) (protein, UniProt Q71RJ2 1-323)
chain: MGLFDRGVQMLLTTVGAFAAFSLMTIAVGTDYWLYSRGVCKTKSVSENETSKKNEEVMTHSGLWRTCCLEGNFKGLCKQIDHFPEDADYEADTAEYFLRAVRASSIFPILSVILLFMGGLCIAASEFYKTRHNIILSAGIFFVSAGLSNIIGIIVYISANAGDPSKSDSKKNSYSYGWSFYFGALSFIIAEMVGVLAVHMFIDRHKQLRATARATDYLQASAITRIPSYRYRYQRRSRSSSRSTEPSHSRDASPVGVKGFNTLPSTEISMYTLSRDPLKAATTPTATYNSDRDNSFLQVHNCIQKDSKDSLHANTANRRTTPV
For B1, in experiment [2], the binding entry is “binds”.

B2: CNIH2 (endogenous, rat hippocampus) (protein, UniProt Q5BJU5 1-160)
chain: MAFTFAAFCYMLTLVLCASLIFFVIWHIIAFDELRTDFKNPIDQGNPARARERLKNIERICCLLRKLVVPEYSIHGLFCLMFLCAAEWVTLGLNIPLLFYHLWRYFHRPADGSEVMYDAVSIMNADILNYCQKESWCKLAFYLLSFFYYLYSMVYTLVSF
For B2, in experiment [2], the binding entry was “binds”.
